# Laboratory results reported in paper PMC5438914 (SLAS discovery, 2016).
# Tested on: human embryonic kidney 293 cells (HEK-293)
# Test: MTT cytotoxicity test
# Conditions: HEK-293, MTT, 24 h
smiles,measurement,value
"CN[C@@H]1C[C@H]2O[C@@](C)([C@@H]1OC)n1c3ccccc3c3c4c(c5c6ccccc6n2c5c31)C(=O)NC4 [staurosporine, reference compound]",IC50 (or CC50) for inhibition of cell growth,3 ng/mL
